Data on three molecules can be found in PubChem BioAssay (NCATS).

Sequences of proteins named here, by UniProt entry; tags and fusion partners are left off. A change or cut given only in a name is not applied to a line headed by its entry.
UniProt P40261: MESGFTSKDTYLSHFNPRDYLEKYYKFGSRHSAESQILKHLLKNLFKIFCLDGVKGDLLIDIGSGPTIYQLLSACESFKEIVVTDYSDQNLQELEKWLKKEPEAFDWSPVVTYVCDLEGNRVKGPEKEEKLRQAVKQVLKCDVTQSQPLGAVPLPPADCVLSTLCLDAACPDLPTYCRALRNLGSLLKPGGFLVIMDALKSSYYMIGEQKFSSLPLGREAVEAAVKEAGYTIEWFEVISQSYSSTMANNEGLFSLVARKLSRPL

Where “and” joins values, the source holds several entries; their conditions need not be identical. Equal values may be shown once. This is one part of the list. These are further read-outs of the screen, such as a control signal, another cell line or another target. No call is given for them. For some of these results: The list favours compounds with an active or inconclusive main result. For some of these results: Words in brackets tell the shape of the fitted curve; partial curves, single points and poor fits give uncertain potencies.

In general, AC50 refers to the concentration at which the activity in the assay is half-maximal. For orientation: IC50 means the concentration needed to halve the response being measured.

Assay [1] in a line: Validation of Assay for Modulators of Lamin A Splicing (AID 1459). The note with it: Lamin A splicing dual RFP/GFP fluorescence reporter, ratio. In a few lines: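 Splicing correction is reported by an EGFP-containing lamin A minigene in stably transfected S3 HeLa cells, while DsRed2 controls for viability and nonspecific signal. Cells are exposed to compounds for 48 hrs before the GFP over RFP ratio is taken.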

Assay [2] can be described thus: qHTS Assay for Lipid Storage Modulators (AID 1519). The note with it: Drosophila S3 cells, BODIPY lipid droplet/cell ratio, laser cytometry, cells loaded with oleic acid. In a few lines: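 Cells seeded at 5,000 per well were treated with compounds over a concentration series and loaded with oleic acid (400 uM, as added). Lipid droplet fluorescence (488 nm excitation, 500-530 nm channel) was read by laser-scanning cytometry and normalized to 20 uM Triacsin C.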
In general terms: Quantitative high-throughput screening tests each substance at several concentrations.

Assay [3] is described as follows: qHTS Assay for Modulators of Human Peripheral Myelin Protein 22 (PMP22) Expression/Activity (AID 1967). The following applies: Cell-based PMP22 reporter, dual-color luciferase ratio. The method in brief:
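Quantitative HTS in a mouse Schwann cell line expressing dual click beetle luciferases: Pmp22 promoter (green) and control EF-alpha promoter (red). After 24h treatment, corrected green/red signal ratio gave %Activity relative to untreated cells.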

Assay [4] can be described thus: qHTS Validation Assay to Find Inhibitors of Chronic Active B-Cell Receptor Signaling (AID 485345). The following applies: ABC-DLBCL cells, chronic BCR signaling reporter. In a few lines:
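TMD8 ABC-DLBCL cells with dox-inducible green luciferase–IκBα fusion and red native luciferase; compounds 46 uM–3 nM, 4 h at 37C with doxycycline in 0.5% FBS IMDM. Green/red ratio normalized to basal and 10 uM MG-132.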

Assay [5] in a line: qHTS assay for small molecule antagonists of peroxisome proliferator-activated receptor delta signaling (AID 588535).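 Also: cells co-treated with a PPAR-delta agonist as stimulator during compound exposure.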 The note with it: HEK293T PPARd-UAS-bla, beta-lactamase FRET ratio, 18 h; 460 nm channel. In a few lines:
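GeneBLAzer PPAR-delta-UAS-bla HEK293T cells in medium with 2% charcoal/dextran FBS were preincubated 5 hrs at 37 C, then given compounds, incubated 18 hrs at 37 C, and read by CCF4 beta-lactamase fluorescence; IC50 from Hill fits.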

Assay [6] can be described thus: qHTS assay for small molecule antagonists of vitamin D receptor signaling (AID 588541). The following applies: HEK293T VDR-UAS-bla, beta-lactamase ratio, antagonist mode; measured here: W460 blue channel (cell viability).
The nature of assay [7]: S16 Schwann cell PMP22 intronic element beta-lactamase assay (AID 624044). The following applies: S16 rat Schwann cells, PMP22 element beta-lactamase FRET, 24 h. The method in brief: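 Rat S16 Schwann cells with beta-Lac driven by a PMP22 intronic element, compound-treated 24 h at 37 °C. LiveBLAzer FRET B/G read: 460 nm normalized to potassium clavulanate vs DMSO; 535 nm FRET as viability; concentration-effect curves classified.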

The nature of assay [8]: A High-Content qHTS Against Drug Library for the Identification of Small Molecules that Inhibit DYT1 Early Onset Primary Dystonia-Associated Cell Pathology (AID 1645839). The following applies: HEK293 Flp-In EGFP-delE TorsinA, punctate imaging, 48 h; measured here: cell count cytotoxicity. In a few lines: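 Readout: %pathology, the punctate EGFP-TorsinA distribution from imaging, as the primary channel and cell count as the toxicity counterscreen. HEK293 Flp-In cells expressing delE TorsinA were induced with tetracycline and treated with compound for 48 h.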

Assay [9] is described as follows: qHTS drug screen for cell cycle checkpoint inhibitors in PARPi-resistant BRCA-mutant ovarian cancer cell lines. (AID 1963452). The following applies: PEO1/OlaR viability, CellTiter-Glo luminescence, 96 h. The method in brief: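 PEO1, PEO4 and PEO1/OlaR ovarian cancer cells, 600 per well, exposed 96 h at 37C to a dilution series. Viability read by CellTiter-Glo luminescence, normalized to DMSO and empty wells; activity summarized as Z-AUC.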

Assay [10] can be described thus: qHTS for identification of novel therapeutic agents for treatment of microphthalmiaassociated transcription factor (MiT) renal cell carcinoma (RCC) (AID 1963991). The note with it: CellTiter-Glo, 48 h; for z-score: stronger effect = lower value. In a few lines: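 Curves over 11 concentrations were fitted to CellTiter-Glo luminescence, scaled between empty wells (0%) and DMSO (100%) viability. Cells were UOK109, UOK124 and UOK145 TFE3-fusion RCC lines at 500/well, exposed 48 hours at 37 C.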

The target in assay [11] is Nicotinamide N-methyltransferase (Homo sapiens) (UniProt P40261). Briefly: Confirmatory Screen for Target Class Profiling of Small Molecule Inhibitors of Methyltransferases (AID 1745852). The following applies: MTase-Glo luminescence, SAH detection, recombinant enzyme; measured here: NNMT inhibition potency.
The mark [12] stands for this setting: measured here: cell count channel max response.
Setting [13] is: measured here: cell number channel AC50.
The mark [14] stands for this setting: measured here: lipid (BODIPY) channel AC50.
Setting [15] is: measured here: lipid channel max response.
Setting [16] is: measured here: green reporter channel AC50, mouse Pmp22 promoter in mouse Schwann cells.
[17] abbreviates: measured here: red reporter channel AC50, EF-alpha promoter control reporter in MSC80 mouse Schwann cells.
[18] abbreviates: measured here: CBG/CBR ratio read-out.
Setting [19] is: measured here: CBR control luciferase (viability counter).

For the molecule `CCN(CC)C(=S)SSC(=S)N(CC)CC`, the AC50 was 0.158 µM [falling, full curve] in [1] (measured here: GFP channel); 0.158 µM [falling, full curve] in [1] (measured here: RFP channel); 10 µM [falling, partial curve, poor fit] in assay [2] (setting [13]); 39.8 µM [falling, single point] and 10 µM [falling, partial curve, poor fit] in assay [2] (setting [14]); 1.69 µM [falling, full curve] in [3] (setting [16]); 12 µM [falling, partial curve, poor fit] in assay [3] (setting [17]). Further, the AC50 is 16.4 µM [falling, partial curve] in assay [4] (setting [18]); 5.17 µM [rising, full curve, poor fit] in [4] (setting [19]); 50.1 µM [falling, single point] in assay [6]; 28.2 µM [falling, partial curve, poor fit] in [7] (measured here: 460 nm blue channel); 28.2 µM [rising, single point] in assay [7] (measured here: 530 nm viability channel); 3.16 µM [falling, partial curve, poor fit] in assay [8]. Also, the half-maximal activity concentration (AC50) in assay [9] (measured here: PEO1 parental viability) is 19.5 µM [falling, single point]; in assay [9] (measured here: PEO4 viability) it was 27.5 µM [falling, single point]; in assay [10] (TFE3-RCC viability, measured here: UOK124 cell viability), 0.00935 µM [falling, full curve, poor fit]; in assay [10] (TFE3-RCC viability, measured here: UOK145 cell viability), 5.9 µM [falling, partial curve, poor fit]. The max response in [2] (setting [12]) is -21.4% and 15.2%; in assay [2] (setting [15]) it was -76.8% and 16.5%; in [5], 16.6%. Besides, the z-score was 0.151 in assay [10] (TFE3-RCC UOK109 viability, measured here: UOK109 Z-AUC); -2.67 in assay [10] (TFE3-RCC viability, measured here: UOK124 Z-AUC); -0.39 in assay [10] (TFE3-RCC viability, measured here: UOK145 Z-AUC).
`CCCCCCCCCCCCCCCCCCNC(=O)OCC(COP(=O)([O-])OCC[n+]1ccsc1)OC` (centres undefined): the AC50 in assay [1] (measured here: RFP channel) was 25.1 µM [falling, single point].
`COc1ccc(NC(=O)/C=C/c2ccc(Cl)cc2)cc1`: the AC50 was 15.8 µM [rising, single point] in [1] (measured here: GFP channel); 15.8 µM [rising, single point] in [1] (measured here: RFP channel); 7.94 µM [falling, full curve] in assay [2] (setting [13]); 7.94 µM [falling, full curve, poor fit] in [2] (setting [14]); 75.7 µM [falling, partial curve] in [3] (setting [16]); 13.5 µM [falling, full curve] in [3] (setting [17]). Further, the concentration at half-maximal activity (AC50) in assay [4] (setting [18]) was 18.4 µM [falling, partial curve]; in [4] (setting [19]), 5.17 µM [falling, partial curve]. The max response was -12.9% in [2] (setting [12]) and -10.1% in assay [2] (setting [15]). The IC50 in [11] is 27.3 µM [falling, partial curve].
